The record followed here is US10905739B2, “Peptidomimetic macrocycles and formulations thereof” (AILERON THERAPEUTICS, INC., priority 2014, dated 2021).

By UniProt entry, the sequences of proteins in these tests, tags left out.
UniProt Q00987, whole entry: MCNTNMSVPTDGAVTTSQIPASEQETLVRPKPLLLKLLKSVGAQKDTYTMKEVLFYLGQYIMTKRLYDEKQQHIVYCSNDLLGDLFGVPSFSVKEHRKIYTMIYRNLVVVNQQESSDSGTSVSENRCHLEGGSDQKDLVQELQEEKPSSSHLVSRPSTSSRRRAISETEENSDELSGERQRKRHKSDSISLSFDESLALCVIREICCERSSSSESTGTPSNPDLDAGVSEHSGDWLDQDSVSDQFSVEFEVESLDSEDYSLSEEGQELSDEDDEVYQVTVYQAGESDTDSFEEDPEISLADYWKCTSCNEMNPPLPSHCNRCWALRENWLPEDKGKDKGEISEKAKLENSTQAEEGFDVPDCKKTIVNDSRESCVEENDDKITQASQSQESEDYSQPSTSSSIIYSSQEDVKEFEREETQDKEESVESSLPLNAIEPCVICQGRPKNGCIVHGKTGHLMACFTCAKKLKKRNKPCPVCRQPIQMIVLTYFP

For orientation: Ki means the equilibrium dissociation constant of an inhibitor or competing ligand from its target. The low end stands for tighter binding, the high end for weaker binding.

Each structure is given as a SMILES string.

For the assay, the target named is MDM2 (Homo sapiens, UniProt Q00987). In words: MDM2 binding IC50/Ki (in vitro displacement, fluorescence polarization).

`CC(=O)N[C@@H](C(=O)N[C@H](C)C(=O)N[C@H](Cc1c[nH]c2ccccc12)C(=O)N[C@H](Cc1ccc(O)cc1)C(=O)N[C@@]1(C)CCCCCCC=CCCC[C@](C)(C(=O)N[C@H](C)C(N)=O)NC(=O)[C@@H](CC(C)C)NC(=O)[C@@H](CC(C)C)NC(=O)[C@@H](CCCCN)NC(=O)[C@@H](CCC(=O)O)NC(=O)[C@@H](Cc2ccc(C(F)(F)F)cc2)NC(=O)[C@@H](CC(N)=O)NC1=O)[C@H](C)O` [SP757, Ac-tawy$s8nf4CF3ekll$r5a-NH2] showed an inhibitory constant (Ki) of 2.92 nM.
